From patent publication US9045526B2 (THE REGENTS OF THE UNIVERSITY OF MICHIGAN, priority 2011, dated 2015)
Not every detail of the peptide structures is certain; ends, links or a residue may be inferred. Numbered stars: 1 amine (or outer) side, 2 acyl side, 3 side chain; on linkers, the order of the positions; unused ones are H or OH. Bridge positions count the residues as written; N and C are the ends. Square brackets hold non-standard residues; d marks the D form. Peptide text beside a SMILES is read from it. * marks the point of attachment. βGlc = OC[C@H]1O[C@@H](*)[C@H](O)[C@@H](O)[C@@H]1O; Dmt = Cc1cc(O)cc(C)c1C[C@H](N)C(=O)O; dPen = CC(C)(S)[C@@H](N)C(=O)O; Aic = NC1(C(=O)O)Cc2ccccc2C1; CH2CH2 = C(C[*:2])[*:1]

Sequences of proteins named here, by UniProt entry; tags and fusion partners are left off. A change or cut given only in a name is not applied to a line headed by its entry.
UniProt P33535, whole entry: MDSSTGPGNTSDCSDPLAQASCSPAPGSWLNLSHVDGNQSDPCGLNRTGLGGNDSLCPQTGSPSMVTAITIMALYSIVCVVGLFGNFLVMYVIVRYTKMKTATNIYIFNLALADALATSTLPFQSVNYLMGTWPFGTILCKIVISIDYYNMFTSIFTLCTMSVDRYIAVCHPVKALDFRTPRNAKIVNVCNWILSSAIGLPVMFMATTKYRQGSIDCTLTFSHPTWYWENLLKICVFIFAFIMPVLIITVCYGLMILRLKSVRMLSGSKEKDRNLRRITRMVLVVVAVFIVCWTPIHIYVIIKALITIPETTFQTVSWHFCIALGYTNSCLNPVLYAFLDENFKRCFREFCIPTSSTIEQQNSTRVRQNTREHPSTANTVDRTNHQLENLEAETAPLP
UniProt P41145: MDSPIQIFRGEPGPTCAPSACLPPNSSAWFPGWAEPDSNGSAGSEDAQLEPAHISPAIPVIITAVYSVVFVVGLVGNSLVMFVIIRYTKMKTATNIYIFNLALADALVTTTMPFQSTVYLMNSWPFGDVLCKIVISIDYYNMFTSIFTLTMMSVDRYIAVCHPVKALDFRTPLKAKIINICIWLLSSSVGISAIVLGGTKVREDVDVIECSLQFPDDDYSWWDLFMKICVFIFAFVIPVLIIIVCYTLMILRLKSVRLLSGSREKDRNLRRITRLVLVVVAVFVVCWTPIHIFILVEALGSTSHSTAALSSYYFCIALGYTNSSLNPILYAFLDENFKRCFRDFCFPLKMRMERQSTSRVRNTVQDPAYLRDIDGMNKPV

Assays:
mu-opioid receptor (MOR) = molecular target: T1, mu-opioid receptor (MOR) (Rattus norvegicus, UniProt P33535); details: displacement of 0.2 nM [3H]diprenorphine, C6-rat glioma membranes, mean±standard error; read-out: binding affinity (Ki) at MOR
T1 construct: expressed in transfected cells; host or cells: C6 rat glioma cells (C6-MOR), stably transfected

[1] = molecular target: T2, kappa-opioid receptor (KOR) (Homo sapiens, UniProt P41145); assay: Radioligand binding, displacement of [3H]diprenorphine, CHO-KOR membranes; details: read-out: binding affinity (Ki) at KOR, displacement of 0.2 nM [3H]diprenorphine, mean±standard error
T2 construct: expressed in transfected cells

Mice = assay: Nociception assay, warm water tail withdrawal; assay type: in vivo; details: for percent maximum possible effect (% MPE): averaged across subjects

Cc1cc(O)cc(C)c1C[C@H](N)C(=O)N[C@@H]1CSCCSC(C)(C)[C@H](C(=O)N[C@@H](CO[C@@H]2O[C@H](CO)[C@@H](O)[C@H](O)[C@H]2O)C(N)=O)NC(=O)C2(Cc3ccccc3C2)NC1=O [VRP-26] (H-[Dmt][dC][Aic][dPen]S(βGlc)-NH2; linker 2-4 via CH2CH2; N-terminus assumed)
Ki (mu-opioid receptor (MOR)): 4.7 nM
Ki [1]: 810 nM
percent maximum possible effect (% MPE) (Mice; 3 mg/kg i.p.): about 30%
percent maximum possible effect (% MPE) (Mice; 10 mg/kg i.p.): about 70%
latency to tail flick (Mice; cumulative dose 10 mg/kg i.p., 50 °C water, cut-off 20 seconds): about 15 seconds
